PubChem BioAssay AID1259308 – NCATS, 2017
This is an unselected part of about 59,000 reagents. Over the whole deposit, about 1,510 (2.6%) are marked active. 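Calls use total luciferase alone and ignore viability, so some active siRNAs may act by altering cell number.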 Unmarked entries are inactive. The numbers tell different reagents against one gene apart. Further read-outs or replicates are left out here.

- Assay: 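Candidate targets for better recombinant protein yield in mammalian cells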 (primary screen)
- Cells: human HEK293 embryonic kidney cells stably expressing firefly luciferase (HEK-CMV-Luc2-Hygro)
- Knock-down reagent: single siRNA against human genes, 0.8 pmol siRNA per well
- Duration: 72 h
- Measured: 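Reporter luminescence and viable-cell signal on separate replicate plates, given as percent of non-targeting control and median/MAD z-scores, plus per-cell luciferase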
- Scale: total luciferase, z-score: higher = more reporter protein produced
- Call rule: 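An siRNA counts as active if its total luciferase robust z-score exceeds 3; genes with two or more such siRNAs out of three were retested with fresh siRNAs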
- Meaning of the calls: active = raised luciferase; inactive = no rise

total luciferase, z-score, by gene symbol and reagent
CHMP7 (GeneID 91782): #1 1.09; #2 0.806; #3 0.45
WWC3 (GeneID 55841): #1 1.07; #2 -0.268; #3 0.273
FGF8 (GeneID 2253): #1 3.24 (active); #2 0.732; #3 -0.276
TTLL13 (GeneID 440307): #1 -0.798; #2 0.29; #3 -2.8
SRPX2 (GeneID 27286): #1 0.443; #2 0.251; #3 1.56
STK24 (GeneID 8428): #1 1.32; #2 -0.589; #3 -0.0338
CA13 (GeneID 377677): #1 0.429; #2 0.772; #3 -0.998
ATG13 (GeneID 9776): #1 -0.14; #2 0.0869; #3 -1.85

Reformatted: entries from further up
CHMP7 (GeneID 91782) #1 | total luciferase, z-score: 1.09
CHMP7 (GeneID 91782) #2 | total luciferase, z-score: 0.806
CHMP7 (GeneID 91782) #3 | total luciferase, z-score: 0.45
WWC3 (GeneID 55841) #1 | total luciferase, z-score: 1.07
